{"source": "paper PMC12040169", "about": "(PLOS Biology, 2025)", "note": "The other results are listed elsewhere or left out.", "data": [{"test_system": "T1, CTL2-GFP (C. trachomatis L2/434/Bu, GFP-expressing)", "T1 construct": "L2/434/Bu, GFP-expressing", "parameters": "species or system HeLa; Intracellular C. trachomatis growth in HeLa cells, bulk GFP fluorescence relative to DMSO", "details": "bulk GFP, single well; 28.5 h, 10 µM; inhibitor", "units": {"% of control remaining": "%"}, "values": [{"compound": "Cc1nn(Cc2ccccc2)c(C)c1NC(=O)CSc1nc2sc3c(c2c(=O)n1C)CCC3", "note": "[CBK266069]", "% of control remaining": 119.863}, {"compound": "O=C(Cc1cc(F)c(F)c(F)c1)NCCc1c[nH]c2ccc(Cl)cc12", "note": "[CBK159768]", "% of control remaining": 103.593}, {"compound": "O=C(c1c(F)cccc1F)N1CCC(O)(c2cccnc2F)CC1", "note": "[CBK284359]", "% of control remaining": 98.3471}, {"compound": "COC(=O)c1c(NC(=O)CCCC(=O)O)sc(C)c1C", "note": "[CBK265382]", "% of control remaining": 108.622}, {"compound": "Cc1c[n+]2ccsc2n1Cc1ccccc1C#N", "note": "[CBK260951B]", "% of control remaining": 73.1837}, {"compound": "CCN(CC)CCN1C(=O)C(O)=C(C(=O)c2ccc(C)o2)C1c1ccccn1", "note": "(stereo not drawn) [CBK266584]", "% of control remaining": 92.7123}, {"compound": "O=C(Cc1ccc(Cl)cc1)N1CCc2c([nH]c3ccccc23)C12CCN(Cc1ccc(F)cc1)C2", "note": "(stereo not drawn) [CBK059453]", "% of control remaining": 94.7842}, {"compound": "CCNC(=O)Nc1ccccc1C(=O)NC1CCCCC1", "note": "[CBK175266]", "% of control remaining": 120.296}, {"compound": "CCn1c(COc2cccc3cccnc23)nnc1SCC(=O)c1ccc(F)cc1", "note": "[CBK265656]", "% of control remaining": 122.668}, {"compound": "Cc1ccc(S(=O)(=O)/N=C(\\NC(C)C(=O)O)c2ccccc2)cc1", "note": "(stereo not drawn) [CBK263099]", "% of control remaining": 120.474}, {"compound": "COC(=O)C(CCSC)NC(=O)c1ccc(C(F)(F)F)cc1", "note": "(stereo not drawn) [CBK057452]", "% of control remaining": 123.306}, {"compound": "CCCCCCSc1ccc(C(=O)CCCN2CCOCC2)cc1", "note": "[CBK010344]", "% of control remaining": 136.701}, {"compound": "O=c1oc(-c2ccncc2)nn1Cc1ccccc1F", "note": "[CBK283692]", "% of control remaining": 134.073}, {"compound": "Cc1nc2c(C(=O)NCCOCCO)cnn2c(C)c1Cc1cccc(OC(F)(F)F)c1", "note": "[CBK167454]", "% of control remaining": 74.7184}, {"compound": "O=C(OCc1cc2ccccc2o1)N1CCOCC1", "note": "[CBK200162]", "% of control remaining": 111.747}, {"compound": "COc1cc(C)c(Nc2cc(-c3cccc(N(C)C)c3)ncn2)cc1OC", "note": "[CBK090780]", "% of control remaining": 88.5684}, {"compound": "CN1CCCN(c2cncc(-c3ccc(F)cc3F)n2)CC1", "note": "[CBK065858]", "% of control remaining": 147.751}, {"compound": "Cc1ccc(C(=O)Nc2c(C(=O)N3CCN(Cc4ccccc4)CC3)cnn2-c2ccccc2)cc1", "note": "[CBK263053]", "% of control remaining": 100}, {"compound": "COc1ccc(C(=O)O)cc1S(=O)(=O)Nc1cccc(C=Cc2ccccn2)c1", "note": "[CBK297763]", "% of control remaining": 116.915}, {"compound": "c1ccc(Cn2cncc2-c2cncn2CCCN2CCCCC2)cc1", "note": "[CBK281490]", "% of control remaining": 118.783}, {"compound": "O=C1N[C@@H]2CCN(CC(=O)N3CCCC3)C[C@@H]2CCCCCOc2ccccc21", "note": "[CBK292141]", "% of control remaining": 152.674}, {"compound": "COc1cc(/C=N/NC(=O)c2n[nH]c3c2CCC3)ccc1O", "note": "[CBK262881]", "% of control remaining": 124.304}, {"compound": "Cc1cc(C)n(CCCC(=O)N2CC3(CCNCC3)CC2C(=O)O)n1", "note": "(stereo not drawn) [CBK307174]", "% of control remaining": 129.633}, {"compound": "COc1ccc(CCC(C)N2CCN(c3ccc(F)cc3)CC2)cc1", "note": "(stereo not drawn) [CBK261922]", "% of control remaining": 105.563}, {"compound": "CCNc1cccnc1N1CCN(C(=O)CCC(=O)c2ccc(NS(C)(=O)=O)cc2)CC1", "note": "[CBK010701]", "% of control remaining": 124.698}, {"compound": "CC(=O)Nc1ccc(Nc2cc(-c3ccsc3)ncn2)cc1", "note": "[CBK090717]", "% of control remaining": 109.651}, {"compound": "CCOC(=O)Cc1csc(NS(=O)(=O)c2ccc(Br)cc2C)n1", "note": "[CBK200027]", "% of control remaining": 120.94}, {"compound": "Cc1nn(C)c(O)c1Cc1c(F)cccc1Cl", "note": "[CBK067759]", "% of control remaining": 120.743}, {"compound": "O=c1cc(N2CCOCC2)oc2ccccc12", "note": "[CBK008244G]", "% of control remaining": 113.378}, {"compound": "Cc1cc2c(cc3c(=O)n(CC(=O)N4CCCC4)nc(C)n32)o1", "note": "[CBK283631]", "% of control remaining": 125.704}, {"compound": "OCCOCCNc1ncnc2sc(-c3ccccc3)cc12", "note": "[CBK265951]", "% of control remaining": 102.29}, {"compound": "CC(=O)N1CCCc2cc(C(O)CN(C)Cc3ccccc3)ccc21", "note": "(stereo not drawn) [CBK282149]", "% of control remaining": 137.66}, {"compound": "CCCn1nc(COc2cccc(F)c2)nc1C1CCN(C(C)=O)CC1", "note": "[CBK306637]", "% of control remaining": 143.814}, {"compound": "Cc1ccc(N2C(=O)CSC23C(=O)Nc2ccccc23)cc1Br", "note": "(stereo not drawn) [CBK093472]", "% of control remaining": 87.0655}, {"compound": "O=C(O)c1cccc(NC(=S)NC(=O)C(c2ccccc2)c2ccccc2)c1", "note": "[CBK265053]", "% of control remaining": 111.508}, {"compound": "Cc1nnc2c(=O)n(CC(=O)N3CCN(C(C)C)CC3)c3cccnc3n12", "note": "[CBK288601]", "% of control remaining": 107.839}, {"compound": "Cc1cccc(=O)n1CCCn1cc(C2CCOC2)nn1", "note": "(stereo not drawn) [CBK307368]", "% of control remaining": 93.8524}, {"compound": "CCOC(=O)CN1C(=O)N2CCCN=C2c2ccc(Cl)cc21", "note": "[CBK284401]", "% of control remaining": 95.2734}, {"compound": "O=C(O)CNS(=O)(=O)c1cc(Br)c(Cl)s1", "note": "[CBK034455]", "% of control remaining": 112.431}, {"compound": "Cc1ccc(C(=O)Nc2ncn(CC(=O)N3CCCCCC3)n2)s1", "note": "[CBK304951]", "% of control remaining": 111.216}, {"compound": "CN1CCN(CCCNC(=O)N2CCCC(CO)C2)CC1", "note": "(stereo not drawn) [CBK156029]", "% of control remaining": 100}, {"compound": "CNc1ncc(CN(C)C(=O)Cn2nc(C)c3ccccc3c2=O)cn1", "note": "[CBK307704]", "% of control remaining": 111.349}, {"compound": "O=C1CCC(N2CCN(c3ncnc4ccccc34)CC2)CCN1", "note": "(stereo not drawn) [CBK304393]", "% of control remaining": 160.761}, {"compound": "Cc1nc(-c2ccc(S(=O)(=O)N3CCC(Cc4ccccc4)CC3)cc2)cs1", "note": "[CBK265494]", "% of control remaining": 96.4447}, {"compound": "Nc1ccc(-c2nnn(CC(=O)NC3CCCCC3)n2)cc1", "note": "[CBK135771]", "% of control remaining": 100}, {"compound": "O=C(CO)N1CC2(CCN(CCn3cccc3)CC2)c2ccccc21", "note": "[CBK143953]", "% of control remaining": 129.29}, {"compound": "CC(=O)N1CCc2cc(C(O)CN3CCN(c4nsc5ccccc45)CC3)ccc21", "note": "(stereo not drawn) [CBK283092]", "% of control remaining": 51.917}, {"compound": "CCc1c(C(=O)N(C)Cc2cnn(C(C)C)c2)[nH]c2ccccc12", "note": "[CBK307501]", "% of control remaining": 104.189}, {"compound": "Cc1cc(C)cc(-c2ccc(CC3(C(=O)NCC4CCCOC4)CCOCC3)cc2)c1", "note": "(stereo not drawn) [CBK286524]", "% of control remaining": 113.45}, {"compound": "CCOC(=O)CC(=O)COc1noc2nc(C)cc(C)c12", "note": "[CBK269595]", "% of control remaining": 111.921}, {"compound": "O=C1COc2ccccc2C/C=C/CC2(CCN(C(=O)Cn3cccn3)CC2)C(=O)NCCN1", "note": "[CBK292003]", "% of control remaining": 88.9116}, {"compound": "CN(C)CCN(C)c1nc(-c2ccc3c(c2)OCO3)cn2ccnc12", "note": "[CBK066381]", "% of control remaining": 98.9315}, {"compound": "Oc1ccc(Br)cc1CN1CCN(Cc2cccc3ccccc23)CC1", "note": "[CBK263662]", "% of control remaining": 126.976}, {"compound": "Cn1c(=O)n(C)c2cc(CNCc3cccnc3)ccc21", "note": "[CBK268432C]", "% of control remaining": 151.458}, {"compound": "O=C(CSc1nnc(-c2cccnc2)o1)c1ccc(Oc2ccccc2)cc1", "note": "[CBK266327]", "% of control remaining": 224.499}, {"compound": "CCNC(=O)c1cc2c(=O)n3ccccc3nc2n(C)c1=N", "note": "[CBK287762]", "% of control remaining": 120.692}, {"compound": "CN(CC1CC1)C(=O)Cn1cnc2c(F)cc(Br)cc2c1=O", "note": "[CBK305227]", "% of control remaining": 110.054}, {"compound": "Cc1noc(C)c1CC(=O)N1CCC2(C/C=C/C[C@H]3COCC[C@@H]3NC(=O)CNC2=O)CC1", "note": "[CBK292071]", "% of control remaining": 124.588}, {"compound": "COc1ccc([C@H](NC(=O)C2CCN(C(=O)OCc3ccccc3)CC2)c2ccccc2C)cn1", "note": "[CBK084639]", "% of control remaining": 102.351}, {"compound": "O=S(=O)(Cc1cccc(C(F)(F)F)c1)c1csc2ccnc(N3CCNCC3)c12", "note": "[CBK039166C]", "% of control remaining": 136.378}, {"compound": "CN1Cc2nc[nH]c2C[C@H]1C(=O)NCc1ccco1", "note": "[CBK288979]", "% of control remaining": 110.953}, {"compound": "C[C@@H](Nc1nc(-c2cccc(-c3ccccc3)c2)cnc1N)c1ccccc1", "note": "[CBK063704]", "% of control remaining": 182.382}, {"compound": "O=C1c2ccc(Oc3ccc(Oc4ccc5c(c4)C(=O)N(c4cccnc4)C5=O)cc3)cc2C(=O)N1c1cccnc1", "note": "[CBK262195]", "% of control remaining": 107.836}, {"compound": "CC(C(=O)O)N(c1ccc(Cl)cc1)S(C)(=O)=O", "note": "(stereo not drawn) [CBK267945]", "% of control remaining": 84.4054}, {"compound": "COc1ccc(F)cc1-c1ccc(S(=O)(=O)Nc2nc(CC(=O)N3CCOCC3)cs2)cc1", "note": "[CBK200031]", "% of control remaining": 118.33}, {"compound": "CCNS(=O)(=O)c1ccc(NC(=O)c2nc3nc(C)cc(C(F)F)n3n2)cc1", "note": "[CBK266146]", "% of control remaining": 189.29}, {"compound": "Cc1nc2ccc(Cl)cn2c1CN1CCN(C2CCCC2)C(=O)C1", "note": "[CBK281452]", "% of control remaining": 101.137}, {"compound": "O=C(CSc1nc2ccccc2[nH]1)Nc1cccc(NC(=O)C23CC4CC(CC(C4)C2)C3)c1", "note": "[CBK265702]", "% of control remaining": 116.351}, {"compound": "Cc1cccn2c(=O)cc(CN3CCc4nn(C)c(=O)cc4C3)nc12", "note": "[CBK305514]", "% of control remaining": 106.265}, {"compound": "O=C1Nc2ccc(-c3ccsc3)cc2C(=O)N2CC[C@H](NC(=O)N3CCOCC3)[C@@H]12", "note": "[CBK289338]", "% of control remaining": 123.311}, {"compound": "CC(C)NC(=O)N1CCc2sccc2C1c1ccc(Cl)cc1", "note": "(stereo not drawn) [CBK018247]", "% of control remaining": 95.3599}, {"compound": "O=C(c1cn(-c2cc(Nc3ccccc3)ncn2)cn1)N1CCOCC1", "note": "[CBK288610]", "% of control remaining": 126.324}, {"compound": "Cc1ccc(C(=O)Nc2ccc3c(c2)OCO3)c(N2CCOCC2)n1", "note": "[CBK076377]", "% of control remaining": 150.723}, {"compound": "CCCOc1ccc(Cc2nc(N(C)C)cc(N(C)C)n2)cc1", "note": "[CBK008318]", "% of control remaining": 138.078}, {"compound": "COc1cc(CNc2nc(O)cc(C(F)(F)F)n2)cc(OC)c1OC", "note": "[CBK002390]", "% of control remaining": 111.409}, {"compound": "COC(=O)C1Cc2cc3c(cc2C(c2cc(OC)c(OC)c(OC)c2)N1)OCO3", "note": "(stereo not drawn) [CBK200104T]", "% of control remaining": 135.192}, {"compound": "NC(=O)c1cccc(-c2nc(-c3ccc(F)cc3F)cnc2N)c1", "note": "[CBK064109]", "% of control remaining": 134.36}, {"compound": "CN(C)C(=O)Cn1cccc2cc(-c3ccc(F)cc3)nc1-2", "note": "[CBK285349]", "% of control remaining": 131.266}]}]}
